Measured values published in article PMC12040169 (PLOS Biology, 2025).
This is one part of the list.

system: T1, CTL2-GFP (C. trachomatis L2/434/Bu, GFP-expressing); set-up: species or system HeLa; Intracellular C. trachomatis growth in HeLa cells, bulk GFP fluorescence relative to DMSO; conditions: bulk GFP, single well; 28.5 h, 10 µM; inhibitor
T1 construct: L2/434/Bu, GFP-expressing

Compared with `CN(c1nc(-c2cccnc2)cn2ccnc12)C1CCCCC1` [CBK093609], `CCSc1ccc(-c2cn3ccnc3c(N3CCN(CCN(C)C)CC3)n2)cc1` [CBK066662] is higher in “% of control remaining” value: 117.612% for the first, 205.336% for the second.

First: COc1ccc(C2(CNC(=O)c3ccc(C)cc3)CCOCC2)cc1 [CBK067060]
Second: O=C(Oc1ccc(Cl)cc1)c1cc(S(=O)(=O)N2CCOCC2)ccc1Cl [CBK261670]
The “% of control remaining” value of the first is lower: 95.4389% for the first, 111.457% for the second.

Going from `COc1cc(C#N)ccc1OCc1ccc2nc(C(F)(F)F)cc(Cl)c2c1` [CBK002589] to `COc1ccc(COc2nc3ccccc3nc2NC(C)C)cc1OC` [CBK116610], the “% of control remaining” value rises from 72.1028% to 100%.

Going from `COCC(=O)N1CCN2C(=O)[C@@H]3C[C@@H](OCc4ccc(F)cc4)CN3C(=O)[C@@H]2C1` [CBK289605] to `CC(C)(C)OC(=O)N1CCC(Oc2ccc(CN)cc2)CC1` [CBK004131], the “% of control remaining” value rises from 126.188% to 133.763%.

Going from `COc1ccc(-c2cnc(N)c(N3CCN(C)CC3)n2)c(OC)c1OC` [CBK063489] to `COc1cc(-c2noc(-c3cc(-c4ccccc4)n[nH]3)n2)cc(OC)c1OC` [CBK287774], the “% of control remaining” value rises from 109.28% to 114.981%.

First: CCCNC(=O)Cn1ncc2c3sc(C)cc3n(CC)c2c1=O [CBK284171]
Second: COC(=O)c1cccc(OCC(O)Cn2nc(C)c(C)c(C#N)c2=O)c1 (stereo not shown) [CBK305563]
The “% of control remaining” value of the first is lower: 125.794% for the first, 139.341% for the second.

First: COc1ccc(S(=O)(=O)Nc2nc3c(s2)C(=O)CC(C)(C)C3)cc1 [CBK095611]
Second: Cc1cc(C)c(NS(=O)(=O)c2ccc(NC(=S)Nc3ccc(S(N)(=O)=O)cc3)cc2)c(C)c1 [CBK267005]
The “% of control remaining” value of the first is higher: 114.847% for the first, 106.598% for the second.

Compared with `O=C(O)C(c1c[nH]c2cc(F)ccc12)N1CCN(c2ccccc2)CC1` (stereo not shown) [CBK286675], `O=C(c1nc(SCc2ccccc2)ncc1Cl)N1CCN(c2cccc(Cl)c2)CC1` [CBK268712] is lower in “% of control remaining” value: 128.116% for the first, 99.2487% for the second.

Going from `Cc1cc(S(=O)(=O)NCC(=O)OC(C)C)c(C)cc1Cl` [CBK044196] to `Cc1ccc(S(=O)(=O)NC(C)C(=O)NCc2ccco2)cc1` (stereo not shown) [CBK266514], the “% of control remaining” value falls from 106.856% to 102.097%.

First: CCNC(=O)c1cncc(-c2[nH]nnc2-c2ccccc2)c1 [CBK160354]
Second: O=C(Nc1c(Cl)cccc1Cl)c1ccc(-c2ccccc2)cc1 [CBK262300]
The “% of control remaining” value of the first is higher: 98.0553% for the first, 95.8761% for the second.

Compared with `CCOC(=O)CN1CCC(Oc2nccnc2OC2CCCCC2)CC1` [CBK082867T], `O=C(c1cccnc1N1CCCCC1)N1CCCCC1` [CBK025882] is higher in “% of control remaining” value: 88.3707% for the first, 123.574% for the second.

First: CN1CCN(S(=O)(=O)c2ccc(NC(=O)c3cc(-c4cccnc4)nc4ccc(Cl)cc34)cc2)CC1 [CBK267734]
Second: CC(C)c1cc(C(=O)N2CCOCC2)c(NC(=O)c2cc(-c3cccnc3)nc3ccc(Br)cc23)s1 [CBK267763]
The “% of control remaining” value of the first is higher: 129.814% for the first, 123.498% for the second.

Going from `Cc1cc(NC(=O)c2c(F)cccc2F)c2ccccc2n1` [CBK122737] to `O=C(Nc1cccc(F)c1)c1cc2ccccc2cc1O` [CBK016863], the “% of control remaining” value falls from 121.727% to 99.2138%.

Going from `Cc1ccc(C(=O)N2CCC(O)(c3cccnc3F)CC2)o1` [CBK284358] to `Cn1ccnc1C1(O)CC2CCC(C1)N2C(=O)c1cccc(F)c1` (stereo not shown) [CBK284089], the “% of control remaining” value rises from 118.211% to 129.881%.

Going from `O=C(OCCN1C[C@H]2CCCCC2C1c1ccccc1)c1ccc(Br)cc1` (stereo partly shown) [CBK016175C] to `Cc1nc(C2CCCCN2C(=O)CCc2ccccc2)ncc1C(=O)Nc1ccc(F)cc1` (stereo not shown) [CBK285870], the “% of control remaining” value falls from 138.011% to 98.8703%.

Compared with `Cc1ccc([N+](=O)[O-])cc1NC(=O)CSC1=NCCS1` [CBK267489], `Cc1ccc(Oc2c([N+](=O)[O-])c(C)nn2C)c(Br)c1` [CBK000283] is lower in “% of control remaining” value: 130.532% for the first, 119.878% for the second.

First: O=C(O)CC(Cc1ccc(Cl)cc1)C(=O)NCc1ccccc1 (stereo not shown) [CBK286984]
Second: CNC(=O)c1c(C)nc2ccccc2c1SCCC(=O)O [CBK154987T]
The “% of control remaining” value of the first is lower: 107.469% for the first, 116.288% for the second.

First: Cc1nc(NC(CC(C)C)C(=O)O)c2nc(C)oc2n1 (stereo not shown) [CBK022157]
Second: Cc1nc(C)c(C(=O)N2CCC(c3cc4c(C)cccc4cn3)CC2)o1 [CBK285186]
The “% of control remaining” value of the first is higher: 124.124% for the first, 55.555% for the second.

First: O=C1NN(c2cccc(Cl)c2)C(=O)/C1=C\c1ccc(-c2ccc3c(c2)C(=O)NC3=O)o1 [CBK262970]
Second: O=C(O)c1ccccc1-c1ccc(-c2cc(C(=O)O)c3cc(F)ccc3n2)o1 [CBK269051]
The “% of control remaining” value of the first is lower: 110.228% for the first, 114.517% for the second.

First: O=C(c1cscn1)N1CCCCC1c1nc2ccccc2[nH]1 (stereo not shown) [CBK283394]
Second: CCOC(=O)c1c[nH]c2nc(COc3ccccc3)nn2c1=O [CBK268088]
The “% of control remaining” value of the first is higher: 123.736% for the first, 96.9649% for the second.

Going from `Cc1cc(Oc2ccccc2)nc(Oc2ccc(OCC(N)=O)nn2)n1` [CBK266687] to `COCCNC(=O)c1ccc(-c2ccccc2)nc1NCC1CC1` [CBK106242], the “% of control remaining” value falls from 158.56% to 117.955%.

Compared with `CCCc1c(C)nc2ccccc2c1SCC(=O)O` [CBK263558], `Cc1nn(CC(=O)N(C)CCn2ccnc2C)c(=O)c2ccccc12` [CBK306536] is higher in “% of control remaining” value: 100% for the first, 118.262% for the second.

Compared with `COC(=O)c1c(NC(=S)NCc2cccs2)sc(C)c1-c1ccccc1` [CBK266943], `Cc1ccc(Nc2ncc(C(=O)NCc3ccccn3)c3ccccc23)cc1Cl` [CBK291113] is lower in “% of control remaining” value: 162.052% for the first, 148.832% for the second.

Compared with `O=C(Cc1cc(F)c(F)c(F)c1)Nc1ccc2ncccc2c1` [CBK159811], `O=C(CSc1nc2[nH]ncc2c(=O)n1-c1ccccc1)Nc1ccc(F)c(Cl)c1` [CBK266453] is lower in “% of control remaining” value: 110.757% for the first, 105.215% for the second.

First: O=C(C1CCCN(c2nc3c(-c4ccccc4)csc3c(=O)[nH]2)C1)N1CCOCC1 (stereo not shown) [CBK215582]
Second: Oc1cc(Cc2ccccc2)cnc1CN1CCOCC1 [CBK288173]
The “% of control remaining” value of the first is higher: 132.036% for the first, 123.104% for the second.

Going from `OCCOc1nc2ccccc2s1` [CBK001812] to `CC(=O)N1CCN(c2nc3ccccc3s2)CC1` [CBK287362], the “% of control remaining” value rises from 94.5812% to 121.471%.

Compared with `c1cc(CNCCN2CCOCC2)cs1` [CBK001894], `O=C(O)/C=C\C(=O)Nc1ccccc1C(=O)N1CCOCC1` [CBK287067] is higher in “% of control remaining” value: 102.432% for the first, 113.506% for the second.

First: COC(=O)c1c(C)[nH]c(C(=O)N2CCCC2c2cccnc2)c1C (stereo not shown) [CBK296639]
Second: O=C(CN1C(=O)N2CCCN=C2c2ccccc21)NC1CCCC1 [CBK284397]
The “% of control remaining” value of the first is higher: 133.639% for the first, 101.672% for the second.

Going from `O=C(c1cc(-c2ccc(Cl)cc2)[nH]n1)N1CCN(c2ncccn2)CC1` [CBK116551] to `O=C(c1ccc(-c2cncc(-c3ccc(Cl)s3)n2)cc1)N1CCOCC1` [CBK138517], the “% of control remaining” value falls from 108.207% to 105.211%.

First: CCN(CC)CCN(C(=O)NCCc1c[nH]c2ccc(OC)cc12)C(C)c1ccc(OC)c(OC)c1 (stereo not shown) [CBK158948]
Second: CCN(CC)CCSc1nc2sc3c(c2c(=O)n1-c1ccccc1)CC(C)(C)OC3 [CBK263728]
The “% of control remaining” value of the first is higher: 123.626% for the first, 120.167% for the second.

Going from `Cc1nc(Cc2nc(-c3ccc4c(c3)CCCN4S(C)(=O)=O)cs2)cs1` [CBK304542] to `Cc1nc2c(OCc3ccc(F)c(F)c3)cccn2c1N(C)C(=O)CCC1CCCC1` [CBK147202], the “% of control remaining” value rises from 121.427% to 161.251%.

First: N#CCC(=O)N1CCN(Cc2ccc3c(c2)OCO3)CC1 [CBK074447]
Second: OCCN1CCN(c2nc3ccccc3nc2-c2ccccc2)CC1 [CBK268799C]
The “% of control remaining” value of the first is higher: 114.276% for the first, 92.832% for the second.

Going from `N#Cc1ccc(C(=O)N2C[C@@H]3C[C@H](C2)c2ccc(-c4cccs4)c(=O)n2C3)cc1` [CBK289180] to `Nc1ncc(-c2ccoc2)nc1-c1ccc(C(=O)O)cc1` [CBK063972], the “% of control remaining” value falls from 143.28% to 112.64%.

First: O=C(Cc1ccccc1Oc1ccccc1)Nc1cnc(-c2ccc(F)cc2)c(-c2ccco2)n1 [CBK037194]
Second: O=S(=O)(c1ccccc1)c1ccccc1C(F)(F)F [CBK085887]
The “% of control remaining” value of the first is higher: 92.0604% for the first, 91.1464% for the second.

Going from `CC(C)(C)OC(=O)NC1CCC(NCc2c[nH]c(-c3ccccc3)n2)CC1` (stereo not shown) [CBK056692] to `CC(C)(C)OC(=O)N1CCC(CNS(=O)(=O)c2cccs2)CC1` [CBK086019], the “% of control remaining” value falls from 195.279% to 141.694%.

First: O=C(O)CN1C(=O)S/C(=C\c2ccc([N+](=O)[O-])o2)C1=O [CBK017858]
Second: Cc1cc(=O)[nH]c(SCC(=O)O)c1C#N [CBK019224]
The “% of control remaining” value of the first is lower: 51.0045% for the first, 117.453% for the second.

Compared with `O=c1[nH]nc2c(S(=O)(=O)N3CCOCC3)cccn12` [CBK288469], `NS(=O)(=O)c1cccc2c1CC1(CC2)OCCO1` [CBK010703] is lower in “% of control remaining” value: 124.402% for the first, 120.123% for the second.

Compared with `Cc1ccc(C(C)(C)CC(C)NC2C3CC4CC(C3)CC2C4)o1` (stereo not shown) [CBK262871], `Cc1nc2cc(OCc3nc(C(=O)N(C)CCN(C)C)co3)ccc2s1` [CBK306685] is lower in “% of control remaining” value: 115.63% for the first, 69.2189% for the second.

First: Cc1cc(C)n(CC(C)CNC(=O)CCCN(C)C)n1 (stereo not shown) [CBK304831]
Second: CCCCCCc1ccc(NS(=O)(=O)c2cc3c(NCCN(C)C)nccc3s2)cc1 [CBK038253C]
The “% of control remaining” value of the first is lower: 75.6182% for the first, 110.954% for the second.

`CCCCOc1nccnc1/C=C/c1ccccc1` [CBK106890] was tested, and the “% of control remaining” value was 188.565%.
